Assay results: PMC12886529
These are yes or no findings as the source states them, for the method shown. Binding seen in cells or lysates may run through a third protein. Some binding calls cover weakened binding; strength is not graded here. Where a sequence is shown, tags or fusion partners need not be part of it.

Protein sequences, listed by entry. Tags and fused reporters are not part of them.
UniProt P08670: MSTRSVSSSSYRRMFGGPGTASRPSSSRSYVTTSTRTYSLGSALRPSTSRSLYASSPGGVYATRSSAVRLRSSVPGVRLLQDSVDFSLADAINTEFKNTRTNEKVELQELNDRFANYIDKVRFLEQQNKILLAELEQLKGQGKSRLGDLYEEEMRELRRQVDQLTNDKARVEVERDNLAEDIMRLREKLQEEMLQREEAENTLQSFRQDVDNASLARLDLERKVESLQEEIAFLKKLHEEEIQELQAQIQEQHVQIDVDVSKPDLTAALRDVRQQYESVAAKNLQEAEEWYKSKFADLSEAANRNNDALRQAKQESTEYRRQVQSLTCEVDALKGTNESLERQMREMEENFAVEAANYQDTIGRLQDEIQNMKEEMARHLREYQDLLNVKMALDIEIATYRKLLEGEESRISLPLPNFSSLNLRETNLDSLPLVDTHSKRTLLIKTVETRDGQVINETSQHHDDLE

T1: CLCA4-Flag (chloride channel accessory 4) (UniProt Q14CN2)
T1 sequence: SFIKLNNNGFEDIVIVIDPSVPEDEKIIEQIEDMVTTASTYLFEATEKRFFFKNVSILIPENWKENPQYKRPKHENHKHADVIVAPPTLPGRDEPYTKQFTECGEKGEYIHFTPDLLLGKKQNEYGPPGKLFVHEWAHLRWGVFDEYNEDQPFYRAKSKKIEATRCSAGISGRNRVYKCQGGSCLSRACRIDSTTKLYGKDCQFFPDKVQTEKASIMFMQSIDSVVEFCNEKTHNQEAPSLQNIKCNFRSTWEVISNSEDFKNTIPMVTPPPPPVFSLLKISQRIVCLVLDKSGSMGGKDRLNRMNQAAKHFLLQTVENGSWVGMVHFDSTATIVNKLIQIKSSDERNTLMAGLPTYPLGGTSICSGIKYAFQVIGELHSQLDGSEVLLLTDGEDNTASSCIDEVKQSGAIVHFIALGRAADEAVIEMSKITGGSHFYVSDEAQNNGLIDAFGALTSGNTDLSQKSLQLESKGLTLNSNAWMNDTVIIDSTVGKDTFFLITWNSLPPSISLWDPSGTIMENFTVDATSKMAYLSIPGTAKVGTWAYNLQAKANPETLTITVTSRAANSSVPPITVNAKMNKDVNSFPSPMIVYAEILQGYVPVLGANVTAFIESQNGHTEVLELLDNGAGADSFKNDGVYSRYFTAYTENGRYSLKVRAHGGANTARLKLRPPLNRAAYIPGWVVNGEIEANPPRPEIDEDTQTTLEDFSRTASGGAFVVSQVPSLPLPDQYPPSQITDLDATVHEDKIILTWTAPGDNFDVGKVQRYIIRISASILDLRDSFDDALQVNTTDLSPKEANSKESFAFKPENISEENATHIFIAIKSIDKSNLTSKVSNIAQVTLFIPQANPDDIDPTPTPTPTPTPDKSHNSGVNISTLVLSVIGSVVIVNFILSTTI

B1: CLCA4-Flag (chloride channel accessory 4) (protein, UniProt Q14CN2 22-919)
chain: SFIKLNNNGFEDIVIVIDPSVPEDEKIIEQIEDMVTTASTYLFEATEKRFFFKNVSILIPENWKENPQYKRPKHENHKHADVIVAPPTLPGRDEPYTKQFTECGEKGEYIHFTPDLLLGKKQNEYGPPGKLFVHEWAHLRWGVFDEYNEDQPFYRAKSKKIEATRCSAGISGRNRVYKCQGGSCLSRACRIDSTTKLYGKDCQFFPDKVQTEKASIMFMQSIDSVVEFCNEKTHNQEAPSLQNIKCNFRSTWEVISNSEDFKNTIPMVTPPPPPVFSLLKISQRIVCLVLDKSGSMGGKDRLNRMNQAAKHFLLQTVENGSWVGMVHFDSTATIVNKLIQIKSSDERNTLMAGLPTYPLGGTSICSGIKYAFQVIGELHSQLDGSEVLLLTDGEDNTASSCIDEVKQSGAIVHFIALGRAADEAVIEMSKITGGSHFYVSDEAQNNGLIDAFGALTSGNTDLSQKSLQLESKGLTLNSNAWMNDTVIIDSTVGKDTFFLITWNSLPPSISLWDPSGTIMENFTVDATSKMAYLSIPGTAKVGTWAYNLQAKANPETLTITVTSRAANSSVPPITVNAKMNKDVNSFPSPMIVYAEILQGYVPVLGANVTAFIESQNGHTEVLELLDNGAGADSFKNDGVYSRYFTAYTENGRYSLKVRAHGGANTARLKLRPPLNRAAYIPGWVVNGEIEANPPRPEIDEDTQTTLEDFSRTASGGAFVVSQVPSLPLPDQYPPSQITDLDATVHEDKIILTWTAPGDNFDVGKVQRYIIRISASILDLRDSFDDALQVNTTDLSPKEANSKESFAFKPENISEENATHIFIAIKSIDKSNLTSKVSNIAQVTLFIPQANPDDIDPTPTPTPTPTPDKSHNSGVNISTLVLSVIGSVVIVNFILSTTI

Tests used:
[1] = target: T1, CLCA4-Flag (chloride channel accessory 4); experiment: co-IP; cell lysates in IP lysis buffer (50 mM Tris-HCl pH 7.4, 150 mM NaCl, 1% NP-40, 0.5% sodium deoxycholate, 0.1% SDS), antibody 2 h at 4 °C, protein A/G agarose; anti-Flag (CLCA4) or anti-HA (vimentin), normal IgG as negative control; Western blotting
vimentin-HA = vimentin-HA (UniProt P08670); experiment: as above

Row | Molecule | binding [1] | binding (vimentin-HA)
1 | vimentin (found in the immunoprecipitate of CLCA4) (from UniProt P08670 1-466) | binds | 
2 | B1 |  | binds
